From PubChem BioAssay AID2685 (National Center for Advancing Translational Sciences (NCATS), 2010) come the findings set out here.

A short description of this assay: qHTS Assay for Lipid Storage Modulators in Drosophila S3 Cells.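 As to cell number change: cells counted by Cell Tracker Red CMTPX staining in the red channel.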 The conditions noted are these: BODIPY lipid droplet fluorescence, 18-24 h; for cell number change: measured here: cell count max response, cells fed with added oleic acid. The method, boiled down: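 Drosophila S3 cells got compounds at several concentrations plus oleic acid (400 uM solution). Laser-scanning cytometry with 488 nm excitation read lipid droplets at 500-530 nm and cells at 575-640 nm. Percent activity was relative to 20 uM Triacsin C.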
On the technique in general: qHTS replaces the single test concentration by a dilution series.

Setting [1] is: measured here: lipid fluorescence (Fed channel) AC50, cells fed with added oleic acid.
[2] abbreviates: measured here: cell number channel AC50, cells fed with added oleic acid.

The structures appear in SMILES notation. Some of the results follow. Shown are side measurements of this screen, not its main read-out; they come without a call. The list favours compounds with an active or inconclusive main result. Words in brackets tell the shape of the fitted curve; partial curves, single points and poor fits give uncertain potencies.

Regarding `CN(C)C/C=C(\c1ccc(Br)cc1)c1cccnc1`, the cell number change amounted to 25.8%. In addition, the concentration at half-maximal activity (AC50) under setting [1] is 29.1 µM [rising, single point].
For the compound `Cc1ccc2c(c1)C(c1ccccc1)N(C(=O)c1cc3ccccc3oc1=O)CC(=O)N2` (configuration not stated), the cell number change was 4.39%. Further, under setting [1], the AC50 was 5.17 µM [rising, single point].
On to `Cc1nc2ccccc2n1C1CC(=O)N(Cc2ccccc2)C1=O` (configuration not stated), for which the cell number change is -57.7%. Further, the AC50 under setting [2] is 8.2 µM [falling, partial curve]. The AC50 under setting [1] is 5.8 µM [falling, partial curve].
Regarding `CCn1ncc(/C=C/C(=O)Nc2c(C)nn(CC)c2C)c1C`, the cell number change is -25.4%. Further, the AC50 under setting [1] was 29.1 µM [falling, single point].
With `COc1cc(C(=O)OC(C)CN2CCCCC2)cc(OC)c1OC` (configuration not stated), the cell number change is -11.9%. Under setting [1], the AC50 was 0.651 µM [rising, full curve, poor fit].
Regarding `C=C1CCC2[C@](C)(CO[C@@H]3O[C@H](CO)[C@@H](O)[C@H](O)[C@H]3O)CCC[C@@]2(C)[C@@H]1CCC1=CCOC1=O` (some centres not stated), the cell number change was -39.9%. Further, the AC50 under setting [2] is 0.13 µM [falling, full curve, poor fit]. The half-maximal activity concentration (AC50) under setting [1] was 1.46 µM [falling, full curve].
With `CC(=O)/C(=N/Nc1ccccc1[N+](=O)[O-])N1CCCc2ccccc21`, the cell number change was -72.6%. The half-maximal activity concentration (AC50) under setting [2] was 18.4 µM [falling, partial curve]. Under setting [1], the AC50 was 14.6 µM [falling, partial curve].
On to `COc1cc2c(cc1OC)C(NC(=O)C(F)(F)F)CNC2=O` (configuration not stated), for which the cell number change is -3.06%. The AC50 under setting [1] is 8.2 µM [falling, partial curve].
`COc1ccc(OC)c(NC(=O)CCCNC(=O)c2ccc(Cl)cc2)c1`: the cell number change came to 25.5%. In addition, the concentration at half-maximal activity (AC50) under setting [1] is 6.51 µM [falling, partial curve, poor fit].
Take `COc1ccccc1C(=O)Oc1cc(N)n(S(=O)(=O)c2ccccc2)n1`: the cell number change was 20%. For the same compound, the AC50 under setting [2] is 4.11 µM [falling, partial curve]. The AC50 under setting [1] is 3.66 µM [falling, partial curve].
On to `Cc1oc(-c2ccccc2)cc1C(=O)Nc1cccc(C(=O)O)c1`, for which the AC50 under setting [2] is 5.17 µM [falling, single point].
As to `COc1ccc(/C=C/C(=O)OCC(=O)Nc2ccc(S(N)(=O)=O)cc2)cc1OC`, the cell number change stood at 10.1%.
In the case of `Cc1cc2ccccc2n2c(SCC(=O)NCc3cccs3)nnc12`, the cell number change came to 22.3%. Also, the AC50 under setting [2] was 0.291 µM [rising, full curve, poor fit]. Also, under setting [1], the concentration at half-maximal activity (AC50) was 9.2 µM [rising, partial curve].
For `Cc1ccc2nc3c(cc(C(N)=S)c(=N)n3CCCOC(C)C)c(=O)n2c1`, the cell number change came to 52.6%. Besides, the AC50 under setting [2] was 0.13 µM [rising, full curve, poor fit].
Consider `Cc1c(C(=O)O)oc2ccc3c(c12)C(O)CC(C)(C)O3` (configuration not stated), for which the AC50 under setting [2] was 0.0461 µM [rising, full curve, poor fit].

A word on the AC50: it is the concentration at which the activity in the assay is half-maximal.
